# Measured values taken from PubChem BioAssay AID651772 (Broad Institute, 2012).
# The shares of active, inactive and inconclusive entries below differ from those in the screen. The source made the active and inactive calls.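 The calls were made as follows: active = compounds whose fitted curve reaches 40% higher CDK2 Ct shift, meaning less CDK2 mRNA, within twice the top dose; inconclusive = flat curve with 30 to 70% opposite effect, or poor fit; inactive = the rest.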
# Assay: suppression of MITF target gene CDK2 mRNA, dose response, orthogonal assay for MITF inhibitor project, cell-based, SK-MEL-5, RT-qPCR, dry powder samples (AID 651772)
# Conditions: SK-MEL-5 CDK2 mRNA, RT-qPCR delta-delta-Ct, overnight
row,SMILES,outcome
1,COc1ccc(NC2=C(N3CCCCC3)C(=O)c3ccccc3C2=O)cc1,inconclusive
2,NC1=C(NS(=O)(=O)c2ccc(Br)s2)C(=O)c2ccccc2C1=O,inactive
3,O=C1C(Nc2ccc(Br)cc2)=C(N2CCCCC2)C(=O)c2ccccc21,inconclusive
4,O=C1C(Nc2cccc(Cl)c2)=C(N2CCCC2)C(=O)c2ccccc21,inconclusive
5,Cc1ccc(NC2=CC(=O)c3ccccc3C2=O)cc1,inconclusive
